According to patent EP0810245A1, “Catalyst for low temperature cure of blocked isocyanates” (ELF ATOCHEM NORTH AMERICA, INC., priority 1996, dated 1997):

Test: Solvent resistance of cured film (double rubs)
Conditions: for 100 MIBK double rubs: 30 min

With CCCCCCCCCCCC(=O)[O][Sn]([CH2]CCC)([CH2]CCC)[O]C(=O)CCCCCCCCCCC [A, Dibutyl Sn Dilaurate] the “cure temperature for complete cure (>100 MEK rubs)” value was 140 °C, the MEK double rubs (0.16% Sn, panels cured at 130°C, 2 mil dry film) was “immediately attacked” and the “100 MIBK double rubs” value (Cure at 122°C) was under 10. The “100 MIBK double rubs” value (Cure at 130°C) was under 10.
